Measurements taken from doi:10.1101/2025.07.04.663186.

By UniProt entry, the sequences of proteins in these tests, tags left out.
UniProt P46939: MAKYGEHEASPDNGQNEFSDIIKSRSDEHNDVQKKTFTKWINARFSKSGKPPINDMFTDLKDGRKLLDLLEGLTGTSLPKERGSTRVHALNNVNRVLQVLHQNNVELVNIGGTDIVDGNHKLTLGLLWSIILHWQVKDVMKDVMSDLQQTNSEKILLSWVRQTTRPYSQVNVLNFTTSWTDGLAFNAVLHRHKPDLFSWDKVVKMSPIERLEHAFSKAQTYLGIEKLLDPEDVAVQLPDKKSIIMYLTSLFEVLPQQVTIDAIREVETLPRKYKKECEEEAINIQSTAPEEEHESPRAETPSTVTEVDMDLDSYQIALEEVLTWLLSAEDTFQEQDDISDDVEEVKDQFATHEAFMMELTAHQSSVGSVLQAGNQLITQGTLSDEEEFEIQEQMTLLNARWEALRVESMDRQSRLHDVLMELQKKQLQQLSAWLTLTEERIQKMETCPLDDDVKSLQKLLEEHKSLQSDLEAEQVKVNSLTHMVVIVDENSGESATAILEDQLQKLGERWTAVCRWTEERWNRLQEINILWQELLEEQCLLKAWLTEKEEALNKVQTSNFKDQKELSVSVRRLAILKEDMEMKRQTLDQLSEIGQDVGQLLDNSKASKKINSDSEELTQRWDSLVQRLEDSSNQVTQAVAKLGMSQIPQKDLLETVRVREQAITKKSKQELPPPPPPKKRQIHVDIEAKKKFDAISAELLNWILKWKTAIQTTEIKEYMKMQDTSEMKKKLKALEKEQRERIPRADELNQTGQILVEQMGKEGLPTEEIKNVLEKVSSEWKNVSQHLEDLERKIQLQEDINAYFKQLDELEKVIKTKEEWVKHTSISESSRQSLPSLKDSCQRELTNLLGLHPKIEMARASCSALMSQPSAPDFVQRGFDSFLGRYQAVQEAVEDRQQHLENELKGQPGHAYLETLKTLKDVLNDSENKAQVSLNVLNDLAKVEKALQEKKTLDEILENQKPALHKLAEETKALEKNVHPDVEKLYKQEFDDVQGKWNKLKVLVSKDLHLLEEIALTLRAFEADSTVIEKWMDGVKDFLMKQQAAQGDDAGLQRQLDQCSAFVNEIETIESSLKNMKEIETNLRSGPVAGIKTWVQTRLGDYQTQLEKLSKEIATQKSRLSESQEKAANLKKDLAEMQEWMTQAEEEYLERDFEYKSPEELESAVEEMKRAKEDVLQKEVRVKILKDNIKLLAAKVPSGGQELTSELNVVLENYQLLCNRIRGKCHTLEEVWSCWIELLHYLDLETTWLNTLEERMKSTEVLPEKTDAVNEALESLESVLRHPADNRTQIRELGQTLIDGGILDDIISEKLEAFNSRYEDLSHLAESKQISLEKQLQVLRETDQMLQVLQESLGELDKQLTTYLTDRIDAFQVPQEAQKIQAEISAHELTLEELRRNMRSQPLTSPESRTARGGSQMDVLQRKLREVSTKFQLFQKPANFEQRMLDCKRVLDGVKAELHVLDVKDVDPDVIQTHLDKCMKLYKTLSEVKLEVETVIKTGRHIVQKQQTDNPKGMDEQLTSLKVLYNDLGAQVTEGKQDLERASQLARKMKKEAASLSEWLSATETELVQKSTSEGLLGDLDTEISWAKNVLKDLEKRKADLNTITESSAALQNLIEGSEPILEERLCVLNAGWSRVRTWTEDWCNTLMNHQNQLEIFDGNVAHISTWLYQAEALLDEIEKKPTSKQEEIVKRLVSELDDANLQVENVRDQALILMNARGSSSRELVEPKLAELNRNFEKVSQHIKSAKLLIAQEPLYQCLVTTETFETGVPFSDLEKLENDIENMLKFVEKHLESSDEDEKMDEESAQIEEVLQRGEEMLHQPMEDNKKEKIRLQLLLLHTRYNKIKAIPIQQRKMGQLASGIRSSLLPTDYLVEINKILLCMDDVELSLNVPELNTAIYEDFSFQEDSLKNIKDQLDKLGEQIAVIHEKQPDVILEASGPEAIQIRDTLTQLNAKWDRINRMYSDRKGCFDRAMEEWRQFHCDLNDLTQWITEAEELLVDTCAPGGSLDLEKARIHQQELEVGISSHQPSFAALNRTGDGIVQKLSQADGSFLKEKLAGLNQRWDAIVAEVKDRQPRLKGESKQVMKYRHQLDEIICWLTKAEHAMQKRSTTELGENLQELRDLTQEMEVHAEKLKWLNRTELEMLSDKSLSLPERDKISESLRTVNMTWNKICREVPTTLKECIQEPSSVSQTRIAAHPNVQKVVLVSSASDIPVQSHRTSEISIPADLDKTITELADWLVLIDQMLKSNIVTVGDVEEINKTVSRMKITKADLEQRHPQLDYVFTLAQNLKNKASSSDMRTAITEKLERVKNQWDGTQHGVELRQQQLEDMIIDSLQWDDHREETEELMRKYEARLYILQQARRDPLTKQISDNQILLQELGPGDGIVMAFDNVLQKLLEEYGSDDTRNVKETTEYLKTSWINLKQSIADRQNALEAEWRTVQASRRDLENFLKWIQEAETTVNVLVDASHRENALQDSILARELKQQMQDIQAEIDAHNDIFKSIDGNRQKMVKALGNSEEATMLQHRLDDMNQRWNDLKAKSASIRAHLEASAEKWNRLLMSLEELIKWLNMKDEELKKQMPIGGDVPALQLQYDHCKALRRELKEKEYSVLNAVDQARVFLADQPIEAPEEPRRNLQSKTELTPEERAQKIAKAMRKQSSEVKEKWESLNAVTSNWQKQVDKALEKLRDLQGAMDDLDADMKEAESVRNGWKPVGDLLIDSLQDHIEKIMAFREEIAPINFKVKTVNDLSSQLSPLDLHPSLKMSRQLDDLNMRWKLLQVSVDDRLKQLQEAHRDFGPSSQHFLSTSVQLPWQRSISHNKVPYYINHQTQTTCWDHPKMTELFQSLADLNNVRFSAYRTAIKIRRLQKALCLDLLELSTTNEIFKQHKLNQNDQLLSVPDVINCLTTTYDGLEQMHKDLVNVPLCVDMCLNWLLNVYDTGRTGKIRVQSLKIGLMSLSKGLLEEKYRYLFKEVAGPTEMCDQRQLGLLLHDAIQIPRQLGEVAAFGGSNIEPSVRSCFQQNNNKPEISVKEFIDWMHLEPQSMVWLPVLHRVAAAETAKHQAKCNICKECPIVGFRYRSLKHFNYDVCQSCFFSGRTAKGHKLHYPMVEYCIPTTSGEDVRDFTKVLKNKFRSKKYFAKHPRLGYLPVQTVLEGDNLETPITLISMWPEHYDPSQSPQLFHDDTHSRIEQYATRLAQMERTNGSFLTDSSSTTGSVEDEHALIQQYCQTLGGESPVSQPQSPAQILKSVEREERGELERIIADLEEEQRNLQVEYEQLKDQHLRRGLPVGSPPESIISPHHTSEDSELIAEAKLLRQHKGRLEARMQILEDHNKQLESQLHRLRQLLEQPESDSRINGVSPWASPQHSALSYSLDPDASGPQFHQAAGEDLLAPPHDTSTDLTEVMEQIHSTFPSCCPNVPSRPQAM
UniProt P42768: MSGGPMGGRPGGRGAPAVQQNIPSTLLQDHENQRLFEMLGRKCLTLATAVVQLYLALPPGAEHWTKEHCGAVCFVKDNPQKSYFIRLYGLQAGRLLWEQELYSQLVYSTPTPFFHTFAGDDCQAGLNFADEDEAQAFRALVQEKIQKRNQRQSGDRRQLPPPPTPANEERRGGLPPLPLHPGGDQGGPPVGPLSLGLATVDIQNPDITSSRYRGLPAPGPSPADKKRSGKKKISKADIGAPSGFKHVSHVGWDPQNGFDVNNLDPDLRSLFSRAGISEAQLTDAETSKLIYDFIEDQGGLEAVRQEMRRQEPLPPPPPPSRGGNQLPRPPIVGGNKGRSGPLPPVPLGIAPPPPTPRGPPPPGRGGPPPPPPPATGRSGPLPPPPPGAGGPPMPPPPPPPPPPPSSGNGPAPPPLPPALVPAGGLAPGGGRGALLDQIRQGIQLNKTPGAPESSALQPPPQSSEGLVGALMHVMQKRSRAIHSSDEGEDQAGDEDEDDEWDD
UniProt O15117: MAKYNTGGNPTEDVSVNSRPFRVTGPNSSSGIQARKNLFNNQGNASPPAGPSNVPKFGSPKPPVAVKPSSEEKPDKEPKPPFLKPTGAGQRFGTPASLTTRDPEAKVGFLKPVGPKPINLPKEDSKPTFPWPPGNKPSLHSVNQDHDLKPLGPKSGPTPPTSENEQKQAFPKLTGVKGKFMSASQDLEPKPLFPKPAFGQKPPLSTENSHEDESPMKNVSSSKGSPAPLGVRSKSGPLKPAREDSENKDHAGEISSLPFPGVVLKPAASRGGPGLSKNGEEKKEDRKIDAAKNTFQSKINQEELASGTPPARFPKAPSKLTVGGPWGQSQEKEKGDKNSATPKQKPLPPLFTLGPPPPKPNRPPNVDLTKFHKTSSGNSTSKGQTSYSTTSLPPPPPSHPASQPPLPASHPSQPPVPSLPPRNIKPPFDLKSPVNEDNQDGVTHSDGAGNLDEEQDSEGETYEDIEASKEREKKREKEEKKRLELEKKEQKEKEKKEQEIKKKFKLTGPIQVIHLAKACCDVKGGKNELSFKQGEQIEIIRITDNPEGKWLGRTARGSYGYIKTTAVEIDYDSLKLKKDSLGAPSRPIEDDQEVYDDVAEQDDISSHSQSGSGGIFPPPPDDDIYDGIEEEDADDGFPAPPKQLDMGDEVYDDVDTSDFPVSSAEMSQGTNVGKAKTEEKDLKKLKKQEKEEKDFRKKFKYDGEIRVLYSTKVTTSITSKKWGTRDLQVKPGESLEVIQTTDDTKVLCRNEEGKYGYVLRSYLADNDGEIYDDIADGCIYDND

T1: myc-BirA*-MYO1F tail (aa 692-1098) (human) (UniProt O00160)
T1 sequence: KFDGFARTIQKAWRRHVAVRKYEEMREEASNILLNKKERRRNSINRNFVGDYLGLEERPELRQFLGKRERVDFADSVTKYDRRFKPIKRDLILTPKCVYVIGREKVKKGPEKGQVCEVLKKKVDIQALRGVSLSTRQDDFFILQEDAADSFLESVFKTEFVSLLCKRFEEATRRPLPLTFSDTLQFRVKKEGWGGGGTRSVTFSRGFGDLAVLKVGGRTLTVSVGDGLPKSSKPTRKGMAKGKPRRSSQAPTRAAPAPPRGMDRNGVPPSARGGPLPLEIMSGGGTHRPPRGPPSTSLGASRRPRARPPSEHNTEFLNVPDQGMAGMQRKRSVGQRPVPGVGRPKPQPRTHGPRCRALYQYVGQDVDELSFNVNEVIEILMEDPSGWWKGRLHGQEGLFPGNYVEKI


biological target: T1, myc-BirA*-MYO1F tail (aa 692-1098) (human); assay: proximity labelling

binding	Molecule
binds	utrophin (UTRN) (from UniProt P46939 1-3433)
binds	Wiskott-Aldrich Syndrome protein (WASP) (from UniProt P42768 1-502)
binds	FYN-binding protein (FYB) (from UniProt O15117 1-783)

biological target: T1, myc-BirA*-MYO1F tail (aa 692-1098) (human); assay: proximity labelling; remark: another data set of the same source

binding	Molecule
binds	ADD3 (Adducin gamma) (protein, UniProt Q9UEY8 1-706) MSSDASQGVITTPPPPSMPHKERYFDRINENDPEYIRERNMSPDLRQDFNMMEQRKRVTQILQSPAFREDLECLIQEQMKKGHNPTGLLALQQIADYIMANSFSGFSSPPLSLGMVTPINDLPGADTSSYVKGEKLTRCKLASLYRLVDLFGWAHLANTYISVRISKEQDHIIIIPRGLSFSEATASNLVKVNIIGEVVDQGSTNLKIDHTGFSPHAAIYSTRPDVKCVIHIHTLATAAVSSMKCGILPISQESLLLGDVAYYDYQGSLEEQEERIQLQKVLGPSCKVLVLRNHGVVALGETLEEAFHYIFNVQLACEIQVQALAGAGGVDNLHVLDFQKYKAFTYTVAASGGGGVNMGSHQKWKVGEIEFEGLMRTLDNLGYRTGYAYRHPLIREKPRHKSDVEIPATVTAFSFEDDTVPLSPLKYMAQRQQREKTRWLNSPNTYMKVNVPEESRNGETSPRTKITWMKAEDSSKVSGGTPIKIEDPNQFVPLNTNPNEVLEKRNKIREQNRYDLKTAGPQSQLLAGIVVDKPPSTMQFEDDDHGPPAPPNPFSHLTEGELEEYKRTIERKQQGLEDAEQELLSDDASSVSQIQSQTQSPQNVPEKLEENHELFSKSFISMEVPVMVVNGKDDMHDVEDELAKRVSRLSTSTTIENIEITIKSPEKIEEVLSPEGSPSKSPSKKKKKFRTPSFLKKNKKKEKVEA
binds	GOLGA8R (protein, UniProt I6L899 1-631) MAEETQHNKLAAAKKKLKEYWQKNRPRVPAGVNRNRKTNGSIPETATSGGCQPPGDSATGFHREGPTSSATLKDLESPCQERAVVLDSTSVKISRLKNTIKSLKQQKKQVEHQLEEEKKANNERQKAERVLEVQIQTLIIQKEELNTDLYHMERSLRYFEEESKDLAVRLQHSLQCKGELERALSAVIATEKKKANQLSSCSKAHTEWELEQSLQDQALLKAQLTQLKESFQQLQLERDECAEHIEGERARWHQRMSKMSQEICTLKKEKQDMRWVEQLEWSLSKLKNQTAEPLPPEPPAVPSEVELQHLRKELERVAGELQSQVKNNQHISLLNRRQEERIREQEERLRKQEERLQEQHEKLRQLAKPQSVFEELNNENKSTLQLEQQVKELQEKLGEEHLEVASQQNQQLTAQLSLMALPGEGHGGEHLDSEGEEAPQPMPSVPEDPESREAMSSFMDHLKEKADLSELLKKQELRFIQYWQERCHQKIHHLLSEPGGRAKDAALGGGHHQAGAQGGDEGEAAGAAADGIAAYSNYNNGHRKFLAAAHNSADEPGPGAPAPQELGAADKHGDLREVTLTSSAQGEAREDPLLDKPTAQPIVQDHQEHPGLGSNCCVPLFCWAWLPRRRR
binds	NUMB (protein, UniProt P49757 1-651) MNKLRQSFRRKKDVYVPEASRPHQWQTDEEGVRTGKCSFPVKYLGHVEVDESRGMHICEDAVKRLKAERKFFKGFFGKTGKKAVKAVLWVSADGLRVVDEKTKDLIVDQTIEKVSFCAPDRNFDRAFSYICRDGTTRRWICHCFMAVKDTGERLSHAVGCAFAACLERKQKREKECGVTATFDASRTTFTREGSFRVTTATEQAEREEIMKQMQDAKKAETDKIVVGSSVAPGNTAPSPSSPTSPTSDATTSLEMNNPHAIPRRHAPIEQLARQGSFRGFPALSQKMSPFKRQLSLRINELPSTMQRKTDFPIKNAVPEVEGEAESISSLCSQITNAFSTPEDPFSSAPMTKPVTVVAPQSPTFQANGTDSAFHVLAKPAHTALAPVAMPVRETNPWAHAPDAANKEIAATCSGTEWGQSSGAASPGLFQAGHRRTPSEADRWLEEVSKSVRAQQPQASAAPLQPVLQPPPPTAISQPASPFQGNAFLTSQPVPVGVVPALQPAFVPAQSYPVANGMPYPAPNVPVVGITPSQMVANVFGTAGHPQAAHPHQSPSLVRQQTFPHYEASSATTSPFFKPPAQHLNGSAAFNGVDDGRLASADRHTEVPTGTCPVDPFEAQWAALENKSKQRTNPSPTNPFSSDLQKTFEIEL
binds	Formin-binding protein 1 (FNBP1) (protein, UniProt Q96RU3 1-617) MSWGTELWDQFDNLEKHTQWGIDILEKYIKFVKERTEIELSYAKQLRNLSKKYQPKKNSKEEEEYKYTSCKAFISNLNEMNDYAGQHEVISENMASQIIVDLARYVQELKQERKSNFHDGRKAQQHIETCWKQLESSKRRFERDCKEADRAQQYFEKMDADINVTKADVEKARQQAQIRHQMAEDSKADYSSILQKFNHEQHEYYHTHIPNIFQKIQEMEERRIVRMGESMKTYAEVDRQVIPIIGKCLDGIVKAAESIDQKNDSQLVIEAYKSGFEPPGDIEFEDYTQPMKRTVSDNSLSNSRGEGKPDLKFGGKSKGKLWPFIKKNKLMSLLTSPHQPPPPPPASASPSAVPNGPQSPKQQKEPLSHRFNEFMTSKPKIHCFRSLKRGLSLKLGATPEDFSNLPPEQRRKKLQQKVDELNKEIQKEMDQRDAITKMKDVYLKNPQMGDPASLDHKLAEVSQNIEKLRVETQKFEAWLAEVEGRLPARSEQARRQSGLYDSQNPPTVNNCAQDRESPDGSYTEEQSQESEMKVLATDFDDEFDDEEPLPAIGTCKALYTFEGQNEGTISVVEGETLYVIEEDKGDGWTRIRRNEDEEGYVPTSYVEVCLDKNAKDS
binds	GPR124 (protein, UniProt Q96PE1 34-1338) APGCPLSIRSCKCSGERPKGLSGGVPGPARRRVVCSGGDLPEPPEPGLLPNGTVTLLLSNNKITGLRNGSFLGLSLLEKLDLRNNIISTVQPGAFLGLGELKRLDLSNNRIGCLTSETFQGLPRLLRLNISGNIFSSLQPGVFDELPALKVVDLGTEFLTCDCHLRWLLPWAQNRSLQLSEHTLCAYPSALHAQALGSLQEAQLCCEGALELHTHHLIPSLRQVVFQGDRLPFQCSASYLGNDTRIRWYHNRAPVEGDEQAGILLAESLIHDCTFITSELTLSHIGVWASGEWECTVSMAQGNASKKVEIVVLETSASYCPAERVANNRGDFRWPRTLAGITAYQSCLQYPFTSVPLGGGAPGTRASRRCDRAGRWEPGDYSHCLYTNDITRVLYTFVLMPINASNALTLAHQLRVYTAEAASFSDMMDVVYVAQMIQKFLGYVDQIKELVEVMVDMASNLMLVDEHLLWLAQREDKACSRIVGALERIGGAALSPHAQHISVNARNVALEAYLIKPHSYVGLTCTAFQRREGGVPGTRPGSPGQNPPPEPEPPADQQLRFRCTTGRPNVSLSSFHIKNSVALASIQLPPSLFSSLPAALAPPVPPDCTLQLLVFRNGRLFHSHSNTSRPGAAGPGKRRGVATPVIFAGTSGCGVGNLTEPVAVSLRHWAEGAEPVAAWWSQEGPGEAGGWTSEGCQLRSSQPNVSALHCQHLGNVAVLMELSAFPREVGGAGAGLHPVVYPCTALLLLCLFATIITYILNHSSIRVSRKGWHMLLNLCFHIAMTSAVFAGGITLTNYQMVCQAVGITLHYSSLSTLLWMGVKARVLHKELTWRAPPPQEGDPALPTPSPMLRFYLIAGGIPLIICGITAAVNIHNYRDHSPYCWLVWRPSLGAFYIPVALILLITWIYFLCAGLRLRGPLAQNPKAGNSRASLEAGEELRGSTRLRGSGPLLSDSGSLLATGSARVGTPGPPEDGDSLYSPGVQLGALVTTHFLYLAMWACGALAVSQRWLPRVVCSCLYGVAASALGLFVFTHHCARRRDVRASWRACCPPASPAAPHAPPRALPAAAEDGSPVFGEGPPSLKSSPSGSSGHPLALGPCKLTNLQLAQSQVCEAGAAAGGEGEPEPAGTRGNLAHRHPNNVHHGRRAHKSRAKGHRAGEACGKNRLKALRGGAAGALELLSSESGSLHNSPTDSYLGSSRNSPGAGLQLEGEPMLTPSEGSDTSAAPLSEAGRAGQRRSASRDSLKGGGALEKESHRRSYPLNAASLNGAPKGGKYDDVTLMGAEVASGGCMKTGLWKSETTV
binds	ITGA6 (Integrin alpha-6) (protein, UniProt P23229 24-1130) FNLDTREDNVIRKYGDPGSLFGFSLAMHWQLQPEDKRLLLVGAPRAEALPLQRANRTGGLYSCDITARGPCTRIEFDNDADPTSESKEDQWMGVTVQSQGPGGKVVTCAHRYEKRQHVNTKQESRDIFGRCYVLSQNLRIEDDMDGGDWSFCDGRLRGHEKFGSCQQGVAATFTKDFHYIVFGAPGTYNWKGIVRVEQKNNTFFDMNIFEDGPYEVGGETEHDESLVPVPANSYLGLLFLTSVSYTDPDQFVYKTRPPREQPDTFPDVMMNSYLGFSLDSGKGIVSKDEITFVSGAPRANHSGAVVLLKRDMKSAHLLPEHIFDGEGLASSFGYDVAVVDLNKDGWQDIVIGAPQYFDRDGEVGGAVYVYMNQQGRWNNVKPIRLNGTKDSMFGIAVKNIGDINQDGYPDIAVGAPYDDLGKVFIYHGSANGINTKPTQVLKGISPYFGYSIAGNMDLDRNSYPDVAVGSLSDSVTIFRSRPVINIQKTITVTPNRIDLRQKTACGAPSGICLQVKSCFEYTANPAGYNPSISIVGTLEAEKERRKSGLSSRVQFRNQGSEPKYTQELTLKRQKQKVCMEETLWLQDNIRDKLRPIPITASVEIQEPSSRRRVNSLPEVLPILNSDEPKTAHIDVHFLKEGCGDDNVCNSNLKLEYKFCTREGNQDKFSYLPIQKGVPELVLKDQKDIALEITVTNSPSNPRNPTKDGDDAHEAKLIATFPDTLTYSAYRELRAFPEKQLSCVANQNGSQADCELGNPFKRNSNVTFYLVLSTTEVTFDTPDLDINLKLETTSNQDNLAPITAKAKVVIELLLSVSGVAKPSQVYFGGTVVGEQAMKSEDEVGSLIEYEFRVINLGKPLTNLGTATLNIQWPKEISNGKWLLYLVKVESKGLEKVTCEPQKEINSLNLTESHNSRKKREITEKQIDDNRKFSLFAERKYQTLNCSVNVNCVNIRCPLRGLDSKASLILRSRLWNSTFLEEYSKLNYLDILMRAFIDVTAAAENIRLPNAGTQVRVTVFPSKTVAQYSGVPWWIILVAILAGILMLALLVFILWKCGFFKRSRYDDSVPRYHAVRIRKEEREIKDEKYIDNLEKKQWITKWNENESYS

These are yes or no findings as the source states them, for the method shown. In cells and extracts the contact can be indirect. A yes stands for co-enrichment or nearness to the bait. Other partners may have been found. Where a sequence is shown, tags or fusion partners need not be part of it.
